Measured values published in doi:10.1101/2023.05.26.542350.
No constants are given. Whether binding was seen depends on the method and setting. Binding seen in cells or lysates may run through a third protein. Some entries that bind do so weakly or less than the wild type.

By UniProt entry, the sequences of proteins in these tests, tags left out. Where a name states a change or a piece, a line headed by the entry shows the natural chain unless it says otherwise. Chains listed by the source or under a name are the forms on record and can include a tag or linker.
UniProt Q8IZP0: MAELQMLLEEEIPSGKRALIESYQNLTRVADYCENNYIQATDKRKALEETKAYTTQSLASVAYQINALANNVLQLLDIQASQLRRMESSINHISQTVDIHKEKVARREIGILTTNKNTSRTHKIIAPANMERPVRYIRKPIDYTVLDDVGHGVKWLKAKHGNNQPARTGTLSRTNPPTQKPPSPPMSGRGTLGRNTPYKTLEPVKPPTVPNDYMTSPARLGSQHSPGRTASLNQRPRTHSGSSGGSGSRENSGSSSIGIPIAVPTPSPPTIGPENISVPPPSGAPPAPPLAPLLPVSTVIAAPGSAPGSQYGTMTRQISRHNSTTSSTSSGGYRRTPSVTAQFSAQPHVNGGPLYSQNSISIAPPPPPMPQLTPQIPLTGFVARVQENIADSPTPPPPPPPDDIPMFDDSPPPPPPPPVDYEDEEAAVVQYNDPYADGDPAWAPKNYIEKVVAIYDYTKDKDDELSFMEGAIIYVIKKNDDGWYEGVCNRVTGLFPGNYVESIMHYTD
Androgen Receptor splice variant 7 (ARv7), endogenous (P10275-3, form named): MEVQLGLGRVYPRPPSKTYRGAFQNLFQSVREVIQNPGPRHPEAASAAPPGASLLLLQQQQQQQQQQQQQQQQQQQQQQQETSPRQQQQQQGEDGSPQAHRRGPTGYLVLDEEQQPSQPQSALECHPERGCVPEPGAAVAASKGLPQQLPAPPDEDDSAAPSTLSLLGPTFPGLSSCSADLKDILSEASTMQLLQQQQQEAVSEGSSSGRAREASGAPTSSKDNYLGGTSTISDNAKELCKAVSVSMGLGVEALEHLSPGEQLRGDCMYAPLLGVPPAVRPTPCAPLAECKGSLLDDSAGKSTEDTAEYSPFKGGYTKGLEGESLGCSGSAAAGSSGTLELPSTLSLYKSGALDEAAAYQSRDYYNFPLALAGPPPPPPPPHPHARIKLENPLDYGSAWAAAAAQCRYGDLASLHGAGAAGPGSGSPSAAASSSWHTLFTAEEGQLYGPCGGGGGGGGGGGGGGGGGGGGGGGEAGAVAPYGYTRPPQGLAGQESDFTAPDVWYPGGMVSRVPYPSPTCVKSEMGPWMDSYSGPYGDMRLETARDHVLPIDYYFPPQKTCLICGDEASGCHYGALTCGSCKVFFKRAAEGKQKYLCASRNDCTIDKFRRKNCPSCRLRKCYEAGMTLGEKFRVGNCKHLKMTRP

Tests used:
[1] = target: Abelson Interactor 1 (ABI1), endogenous (human (endogenous in VCaP, LAPC4, LNCaP, 22Rv1 and patient tumors)) (UniProt Q8IZP0); experiment: proximity ligation
[2] = target: Abelson Interactor 1 (ABI1), endogenous (human (endogenous in VCaP, LAPC4, LNCaP, 22Rv1 and patient tumors)) (UniProt Q8IZP0); experiment: co-IP
[3] = target: Abelson Interactor 1 (ABI1), endogenous (human (endogenous in VCaP, LAPC4, LNCaP, 22Rv1 and patient tumors)) (UniProt Q8IZP0); experiment: proximity ligation; remark: listed apart in the source

Measured: binding

Androgen Receptor splice variant 7 (ARv7), endogenous (from UniProt P10275-3 1-644)
binds: all assays above
